From paper PMC4482279
No constants are given. Whether binding was seen depends on the method and setting. In cells and extracts the contact can be indirect. Some results given as binding are weak or reduced against the parent protein; the word gives no strength. Where a sequence is shown, tags or fusion partners need not be part of it.

Target: tyrosine phosphorylated epidermal growth factor receptor (pEGFR) in EGF-stimulated A431 cell lysate (human (endogenous in A431)) (UniProt P00533)
Test: proximity ligation; SH2-PLA Method 1, in solution: cell or tissue lysate premixed with anti-EGFR 3' Prox-Oligo probe (0.5 nM), GST-domain (0.1 μg/ml) premixed with anti-GST 5' Prox-Oligo probe (0.5 nM), each 1.5 h at 4 °C, then combined 1.5 h at 4 °C; ligation and real-time PCR (Ct); lysates of cells with or without EGF stimulation; only the binder purified

B1: GST-Vav2 SH2 (665-774) (domain or fragment, UniProt P52735 665-774)
chain: EIDYTAYPWFAGNMERQQTDNLLKSHASGTYLIRERPAEAERFAISIKFNDEVKHIKVVEKDNWIHITEAKKFDSLLELVEYYQCHSLKESFKQLDTTLKYPYKSRERSA
binding: binds
